The source of these data is paper PMC7313111.

Protein sequences, listed by entry. Tags and fused reporters are not part of them.
UniProt P38532: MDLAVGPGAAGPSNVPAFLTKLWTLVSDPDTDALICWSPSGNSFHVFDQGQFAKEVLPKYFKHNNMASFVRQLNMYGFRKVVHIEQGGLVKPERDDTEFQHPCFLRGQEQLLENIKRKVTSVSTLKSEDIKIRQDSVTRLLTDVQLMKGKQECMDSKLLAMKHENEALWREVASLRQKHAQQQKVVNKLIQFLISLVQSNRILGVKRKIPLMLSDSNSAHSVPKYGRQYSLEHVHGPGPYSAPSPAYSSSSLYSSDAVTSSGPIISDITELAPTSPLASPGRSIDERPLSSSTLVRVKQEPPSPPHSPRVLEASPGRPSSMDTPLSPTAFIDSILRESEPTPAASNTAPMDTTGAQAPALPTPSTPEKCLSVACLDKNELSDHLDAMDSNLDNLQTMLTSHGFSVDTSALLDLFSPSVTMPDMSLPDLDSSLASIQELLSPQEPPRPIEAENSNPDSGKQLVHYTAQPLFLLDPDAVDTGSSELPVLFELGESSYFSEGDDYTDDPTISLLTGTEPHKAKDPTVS
UniProt Q61696: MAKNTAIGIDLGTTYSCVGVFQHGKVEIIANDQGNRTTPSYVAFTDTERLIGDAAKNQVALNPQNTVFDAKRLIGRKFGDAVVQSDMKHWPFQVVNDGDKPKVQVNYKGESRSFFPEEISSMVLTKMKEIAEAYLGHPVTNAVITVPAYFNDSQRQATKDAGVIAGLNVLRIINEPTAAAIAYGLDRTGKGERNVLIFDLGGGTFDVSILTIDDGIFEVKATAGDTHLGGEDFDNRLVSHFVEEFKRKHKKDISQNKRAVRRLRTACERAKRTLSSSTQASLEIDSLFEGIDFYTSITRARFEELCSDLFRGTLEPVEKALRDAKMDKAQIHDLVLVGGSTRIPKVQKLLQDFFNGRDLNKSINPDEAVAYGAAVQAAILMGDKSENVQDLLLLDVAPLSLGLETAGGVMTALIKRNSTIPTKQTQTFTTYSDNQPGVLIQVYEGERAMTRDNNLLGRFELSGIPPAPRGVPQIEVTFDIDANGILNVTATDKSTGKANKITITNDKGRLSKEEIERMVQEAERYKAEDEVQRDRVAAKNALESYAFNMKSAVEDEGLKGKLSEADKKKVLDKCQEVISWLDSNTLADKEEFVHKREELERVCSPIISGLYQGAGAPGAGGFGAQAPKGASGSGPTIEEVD

The target in assay [1] is T1, ALDH2 (mouse (endogenous in mouse heart and neonatal mouse cardiomyocytes)) (UniProt P47738).
T1 sequence: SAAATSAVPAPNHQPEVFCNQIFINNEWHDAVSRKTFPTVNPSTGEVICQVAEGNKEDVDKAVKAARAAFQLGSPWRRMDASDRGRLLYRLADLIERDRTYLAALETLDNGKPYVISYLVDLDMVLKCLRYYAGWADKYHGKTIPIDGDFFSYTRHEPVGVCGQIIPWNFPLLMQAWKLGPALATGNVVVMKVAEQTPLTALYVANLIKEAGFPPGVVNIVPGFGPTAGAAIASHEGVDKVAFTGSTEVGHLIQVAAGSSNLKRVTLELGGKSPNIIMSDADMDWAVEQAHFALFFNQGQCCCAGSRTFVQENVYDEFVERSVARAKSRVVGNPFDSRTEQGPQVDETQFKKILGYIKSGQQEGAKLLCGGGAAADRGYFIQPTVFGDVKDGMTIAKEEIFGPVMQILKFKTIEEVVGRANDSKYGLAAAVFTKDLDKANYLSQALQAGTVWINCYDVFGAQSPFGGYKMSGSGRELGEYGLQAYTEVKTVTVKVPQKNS
As to the kind of experiment: co-IP; lysates of heart of 4-week TAC mice and of 48-hour stretched cardiomyocytes; lysis buffer 150 mmol/l NaCl, 1 mmol/l EDTA, 50 mmol/l Tris-HCl, 5% glycerol, 0.1% NP-40, 4°C; antibody then protein A/G-agarose beads; Western blot; IgG lane as negative control; both orientations (anti-ALDH2 and anti-HSF1). A general note: Immunoblotting shows a protein as a band on a membrane.

The target in the next assay is T2, pBIND-ALDH2 (UniProt P47738).
T2 sequence: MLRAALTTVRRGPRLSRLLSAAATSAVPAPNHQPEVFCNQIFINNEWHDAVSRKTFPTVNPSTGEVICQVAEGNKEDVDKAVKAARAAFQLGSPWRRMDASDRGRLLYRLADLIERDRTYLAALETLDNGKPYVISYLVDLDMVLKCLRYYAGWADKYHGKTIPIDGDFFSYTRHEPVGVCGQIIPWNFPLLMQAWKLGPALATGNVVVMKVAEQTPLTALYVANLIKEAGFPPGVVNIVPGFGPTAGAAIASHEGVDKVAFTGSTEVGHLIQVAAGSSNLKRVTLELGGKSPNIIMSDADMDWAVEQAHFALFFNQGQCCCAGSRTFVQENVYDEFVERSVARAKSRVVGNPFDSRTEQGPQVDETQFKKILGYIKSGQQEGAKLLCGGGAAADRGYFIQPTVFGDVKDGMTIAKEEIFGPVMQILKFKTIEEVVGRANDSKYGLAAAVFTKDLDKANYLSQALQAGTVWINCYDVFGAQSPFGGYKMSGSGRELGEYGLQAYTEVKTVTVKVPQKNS
Nature of the assay: two-hybrid; mammalian two-hybrid luciferase reporter in cardiomyocytes: cotransfection of pBIND-ALDH2 with pACT-HSF1 or pACT-HSPA1A and pG5luc; ratio of luciferase RLU to Renilla luciferase RLU.

The target in assay [2] is HSF1 (mouse (endogenous in mouse heart and neonatal mouse cardiomyocytes)) (UniProt P38532). As to the kind of experiment: co-IP; lysates of heart of 4-week TAC mice and of 48-hour stretched cardiomyocytes; lysis buffer 150 mmol/l NaCl, 1 mmol/l EDTA, 50 mmol/l Tris-HCl, 5% glycerol, 0.1% NP-40, 4°C; antibody then protein A/G-agarose beads; Western blot; IgG lane as negative control; both orientations (anti-ALDH2 and anti-HSF1).

These are yes or no findings as the source states them, for the method shown. For some of these results: In cells and extracts the contact can be indirect.

As for HSF1 (from UniProt P38532 1-525), the binding entry in assay [1] is “no binding”.

Consider pACT-HSF1 (from UniProt P38532 1-525), for which the binding result in the assay with pBIND-ALDH2 is given as “no binding”.

With pACT-HSPA1A (from UniProt Q61696 1-641), the binding result with pBIND-ALDH2 was “no binding”.

B1: ALDH2 (protein, UniProt P47738 20-519)
chain: T1 sequence
On to B1, for which the binding entry in assay [2] is “no binding”.
